Data reported in publication PMC10645886.
Results are given in words; binding and its absence hold for the method and conditions named. In cells and extracts the contact can be indirect. Some entries that bind do so weakly or less than the wild type.

Protein sequences, listed by entry. Tags and fused reporters are not part of them. Residues count along the entry.
UniProt Q04206: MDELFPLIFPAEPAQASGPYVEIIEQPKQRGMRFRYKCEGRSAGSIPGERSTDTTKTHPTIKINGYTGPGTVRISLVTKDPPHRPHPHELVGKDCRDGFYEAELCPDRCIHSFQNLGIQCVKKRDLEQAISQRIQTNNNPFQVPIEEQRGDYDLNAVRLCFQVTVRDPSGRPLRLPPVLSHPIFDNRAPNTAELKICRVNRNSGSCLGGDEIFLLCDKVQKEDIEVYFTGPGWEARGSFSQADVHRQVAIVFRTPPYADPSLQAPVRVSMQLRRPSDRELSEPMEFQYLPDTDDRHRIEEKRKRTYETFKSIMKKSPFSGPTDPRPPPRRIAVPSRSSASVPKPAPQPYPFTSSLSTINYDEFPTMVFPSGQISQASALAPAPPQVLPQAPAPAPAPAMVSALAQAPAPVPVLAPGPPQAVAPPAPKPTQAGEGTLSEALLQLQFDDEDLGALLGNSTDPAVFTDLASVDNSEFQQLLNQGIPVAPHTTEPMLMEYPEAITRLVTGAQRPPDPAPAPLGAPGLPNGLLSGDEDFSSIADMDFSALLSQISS
UniProt P24821, residues 23-2201: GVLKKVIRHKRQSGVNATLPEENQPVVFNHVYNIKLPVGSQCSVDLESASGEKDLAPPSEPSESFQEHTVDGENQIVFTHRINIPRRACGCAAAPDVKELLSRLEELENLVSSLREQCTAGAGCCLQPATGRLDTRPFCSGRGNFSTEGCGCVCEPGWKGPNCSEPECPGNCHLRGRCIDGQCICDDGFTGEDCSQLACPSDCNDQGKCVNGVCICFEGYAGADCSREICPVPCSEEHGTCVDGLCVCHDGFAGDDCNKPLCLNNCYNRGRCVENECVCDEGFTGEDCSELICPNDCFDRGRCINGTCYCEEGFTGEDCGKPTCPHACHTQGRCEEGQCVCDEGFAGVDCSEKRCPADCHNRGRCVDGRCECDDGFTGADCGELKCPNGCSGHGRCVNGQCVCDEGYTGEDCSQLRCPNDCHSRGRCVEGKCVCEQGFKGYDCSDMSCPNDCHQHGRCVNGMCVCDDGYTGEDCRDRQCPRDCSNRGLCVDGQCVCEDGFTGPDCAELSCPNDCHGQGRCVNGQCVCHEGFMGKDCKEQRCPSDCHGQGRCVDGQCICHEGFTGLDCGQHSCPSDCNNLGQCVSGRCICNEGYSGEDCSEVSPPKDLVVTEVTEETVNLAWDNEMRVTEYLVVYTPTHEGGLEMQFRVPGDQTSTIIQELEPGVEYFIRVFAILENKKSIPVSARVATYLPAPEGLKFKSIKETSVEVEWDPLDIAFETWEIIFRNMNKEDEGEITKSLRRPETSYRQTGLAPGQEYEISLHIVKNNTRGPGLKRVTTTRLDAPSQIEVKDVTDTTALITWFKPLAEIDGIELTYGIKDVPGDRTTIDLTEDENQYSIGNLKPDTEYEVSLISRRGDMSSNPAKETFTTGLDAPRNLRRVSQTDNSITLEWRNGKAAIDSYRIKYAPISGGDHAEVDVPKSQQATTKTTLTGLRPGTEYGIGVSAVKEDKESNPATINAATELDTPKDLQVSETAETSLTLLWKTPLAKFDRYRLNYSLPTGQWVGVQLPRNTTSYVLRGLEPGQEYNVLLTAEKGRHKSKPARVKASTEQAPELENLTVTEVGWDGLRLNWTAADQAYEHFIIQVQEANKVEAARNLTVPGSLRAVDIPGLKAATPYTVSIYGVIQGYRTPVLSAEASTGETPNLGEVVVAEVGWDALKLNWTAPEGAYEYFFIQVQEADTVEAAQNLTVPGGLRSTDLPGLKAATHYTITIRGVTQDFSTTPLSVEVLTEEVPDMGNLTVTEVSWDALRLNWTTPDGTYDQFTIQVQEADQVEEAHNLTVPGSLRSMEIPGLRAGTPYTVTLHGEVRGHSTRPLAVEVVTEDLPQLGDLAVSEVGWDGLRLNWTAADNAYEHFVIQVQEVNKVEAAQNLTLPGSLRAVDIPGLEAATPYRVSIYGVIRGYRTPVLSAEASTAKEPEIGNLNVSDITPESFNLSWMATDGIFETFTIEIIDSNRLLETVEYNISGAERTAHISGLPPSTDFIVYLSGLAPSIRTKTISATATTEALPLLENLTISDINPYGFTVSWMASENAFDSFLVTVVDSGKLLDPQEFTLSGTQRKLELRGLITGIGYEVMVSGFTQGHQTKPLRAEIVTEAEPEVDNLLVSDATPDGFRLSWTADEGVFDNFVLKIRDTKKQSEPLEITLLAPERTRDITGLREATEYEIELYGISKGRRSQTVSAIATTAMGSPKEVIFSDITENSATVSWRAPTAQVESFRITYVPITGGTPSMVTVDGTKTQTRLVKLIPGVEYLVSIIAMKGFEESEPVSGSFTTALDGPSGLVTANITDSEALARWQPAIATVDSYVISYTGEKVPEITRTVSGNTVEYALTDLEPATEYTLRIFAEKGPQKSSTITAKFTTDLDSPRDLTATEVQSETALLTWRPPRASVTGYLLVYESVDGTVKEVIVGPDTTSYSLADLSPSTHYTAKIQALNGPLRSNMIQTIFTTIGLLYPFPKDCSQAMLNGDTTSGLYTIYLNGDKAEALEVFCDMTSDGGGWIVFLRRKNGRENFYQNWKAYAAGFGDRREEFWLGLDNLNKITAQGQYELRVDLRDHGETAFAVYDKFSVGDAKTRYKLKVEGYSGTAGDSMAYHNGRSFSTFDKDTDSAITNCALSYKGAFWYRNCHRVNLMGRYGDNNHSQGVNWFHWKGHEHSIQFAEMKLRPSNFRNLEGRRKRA
UniProt P78504, residues 34-1218: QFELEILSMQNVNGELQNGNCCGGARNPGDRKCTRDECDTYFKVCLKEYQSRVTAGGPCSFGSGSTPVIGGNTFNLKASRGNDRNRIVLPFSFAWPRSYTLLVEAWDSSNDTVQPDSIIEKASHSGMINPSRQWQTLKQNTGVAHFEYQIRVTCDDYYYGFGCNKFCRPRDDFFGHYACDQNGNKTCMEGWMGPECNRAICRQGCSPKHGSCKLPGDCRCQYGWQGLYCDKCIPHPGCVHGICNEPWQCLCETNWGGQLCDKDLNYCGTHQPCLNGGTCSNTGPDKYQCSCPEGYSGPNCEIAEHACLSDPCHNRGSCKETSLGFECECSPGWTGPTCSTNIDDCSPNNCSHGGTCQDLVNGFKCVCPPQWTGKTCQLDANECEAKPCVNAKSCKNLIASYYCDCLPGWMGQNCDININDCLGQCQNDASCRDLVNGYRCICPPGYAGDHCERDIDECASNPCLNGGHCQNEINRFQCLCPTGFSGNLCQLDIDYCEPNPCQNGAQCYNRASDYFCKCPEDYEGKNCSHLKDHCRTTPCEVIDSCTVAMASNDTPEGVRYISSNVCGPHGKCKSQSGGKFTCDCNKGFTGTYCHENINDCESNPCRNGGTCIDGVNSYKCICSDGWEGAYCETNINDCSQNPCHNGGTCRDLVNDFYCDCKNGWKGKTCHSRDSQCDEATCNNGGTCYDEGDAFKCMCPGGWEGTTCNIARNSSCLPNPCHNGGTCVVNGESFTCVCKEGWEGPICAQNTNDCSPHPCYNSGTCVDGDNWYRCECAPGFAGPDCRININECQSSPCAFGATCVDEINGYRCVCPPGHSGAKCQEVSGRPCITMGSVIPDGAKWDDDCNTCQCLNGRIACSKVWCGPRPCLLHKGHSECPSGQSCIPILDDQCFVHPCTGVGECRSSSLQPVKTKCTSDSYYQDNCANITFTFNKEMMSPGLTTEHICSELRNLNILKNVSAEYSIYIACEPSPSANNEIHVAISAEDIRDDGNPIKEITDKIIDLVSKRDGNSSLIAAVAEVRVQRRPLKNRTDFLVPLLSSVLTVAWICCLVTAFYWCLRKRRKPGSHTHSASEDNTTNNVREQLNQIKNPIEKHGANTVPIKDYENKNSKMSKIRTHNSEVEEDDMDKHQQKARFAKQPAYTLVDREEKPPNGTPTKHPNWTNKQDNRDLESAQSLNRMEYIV

T1: protein tyrosine phosphatase 1B (PTP1B) (human (endogenous in U251 and KM12SM)) (UniProt P18031)
T1 sequence: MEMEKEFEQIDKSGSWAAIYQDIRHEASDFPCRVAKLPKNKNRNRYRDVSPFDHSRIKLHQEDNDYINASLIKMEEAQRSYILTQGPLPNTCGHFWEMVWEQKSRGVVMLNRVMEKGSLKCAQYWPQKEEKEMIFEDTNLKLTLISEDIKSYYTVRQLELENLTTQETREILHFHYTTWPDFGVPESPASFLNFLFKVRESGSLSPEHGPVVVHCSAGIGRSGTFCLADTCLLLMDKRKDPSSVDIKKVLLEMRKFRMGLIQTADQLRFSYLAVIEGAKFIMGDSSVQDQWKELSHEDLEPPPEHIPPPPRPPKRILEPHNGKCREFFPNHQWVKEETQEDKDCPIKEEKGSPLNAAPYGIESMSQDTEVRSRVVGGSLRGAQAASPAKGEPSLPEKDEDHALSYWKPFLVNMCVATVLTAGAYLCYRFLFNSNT

B1: SLC16A3 (protein, UniProt O15427 1-465)
chain: MGGAVVDEGPTGVKAPDGGWGWAVLFGCFVITGFSYAFPKAVSVFFKELIQEFGIGYSDTAWISSILLAMLYGTGPLCSVCVNRFGCRPVMLVGGLFASLGMVAASFCRSIIQVYLTTGVITGLGLALNFQPSLIMLNRYFSKRRPMANGLAAAGSPVFLCALSPLGQLLQDRYGWRGGFLILGGLLLNCCVCAALMRPLVVTAQPGSGPPRPSRRLLDLSVFRDRGFVLYAVAASVMVLGLFVPPVFVVSYAKDLGVPDTKAAFLLTILGFIDIFARPAAGFVAGLGKVRPYSVYLFSFSMFFNGLADLAGSTAGDYGGLVVFCIFFGISYGMVGALQFEVLMAIVGTHKFSSAIGLVLLMEAVAVLVGPPSGGKLLDATHVYMYVFILAGAEVLTSSLILLLGNFFCIRKKPKEPQPEVAAAEEEKLHKPPADSGVDLREVEHFLKAEPEKNGEVVHTPETSV
B2: ITGA6 (protein, UniProt P23229 24-1130)
chain: FNLDTREDNVIRKYGDPGSLFGFSLAMHWQLQPEDKRLLLVGAPRAEALPLQRANRTGGLYSCDITARGPCTRIEFDNDADPTSESKEDQWMGVTVQSQGPGGKVVTCAHRYEKRQHVNTKQESRDIFGRCYVLSQNLRIEDDMDGGDWSFCDGRLRGHEKFGSCQQGVAATFTKDFHYIVFGAPGTYNWKGIVRVEQKNNTFFDMNIFEDGPYEVGGETEHDESLVPVPANSYLGLLFLTSVSYTDPDQFVYKTRPPREQPDTFPDVMMNSYLGFSLDSGKGIVSKDEITFVSGAPRANHSGAVVLLKRDMKSAHLLPEHIFDGEGLASSFGYDVAVVDLNKDGWQDIVIGAPQYFDRDGEVGGAVYVYMNQQGRWNNVKPIRLNGTKDSMFGIAVKNIGDINQDGYPDIAVGAPYDDLGKVFIYHGSANGINTKPTQVLKGISPYFGYSIAGNMDLDRNSYPDVAVGSLSDSVTIFRSRPVINIQKTITVTPNRIDLRQKTACGAPSGICLQVKSCFEYTANPAGYNPSISIVGTLEAEKERRKSGLSSRVQFRNQGSEPKYTQELTLKRQKQKVCMEETLWLQDNIRDKLRPIPITASVEIQEPSSRRRVNSLPEVLPILNSDEPKTAHIDVHFLKEGCGDDNVCNSNLKLEYKFCTREGNQDKFSYLPIQKGVPELVLKDQKDIALEITVTNSPSNPRNPTKDGDDAHEAKLIATFPDTLTYSAYRELRAFPEKQLSCVANQNGSQADCELGNPFKRNSNVTFYLVLSTTEVTFDTPDLDINLKLETTSNQDNLAPITAKAKVVIELLLSVSGVAKPSQVYFGGTVVGEQAMKSEDEVGSLIEYEFRVINLGKPLTNLGTATLNIQWPKEISNGKWLLYLVKVESKGLEKVTCEPQKEINSLNLTESHNSRKKREITEKQIDDNRKFSLFAERKYQTLNCSVNVNCVNIRCPLRGLDSKASLILRSRLWNSTFLEEYSKLNYLDILMRAFIDVTAAAENIRLPNAGTQVRVTVFPSKTVAQYSGVPWWIILVAILAGILMLALLVFILWKCGFFKRSRYDDSVPRYHAVRIRKEEREIKDEKYIDNLEKKQWITKWNENESYS
B3: RHOV (protein, UniProt Q96L33 1-236)
chain: MPPRELSEAEPPPLRAPTPPPRRRSAPPELGIKCVLVGDGAVGKSSLIVSYTCNGYPARYRPTALDTFSVQVLVDGAPVRIELWDTAGQEDFDRLRSLCYPDTDVFLACFSVVQPSSFQNITEKWLPEIRTHNPQAPVLLVGTQADLRDDVNVLIQLDQGGREGPVPQPQAQGLAEKIRACCYLECSALTQKNLKEVFDSAILSAIEHKARLEKKLNAKGVRTLSRCRWKKFFCFV
B4: ABCF2 (protein, UniProt Q9UG63 1-623)
chain: MPSDLAKKKAAKKKEAAKARQRPRKGHEENGDVVTEPQVAEKNEANGRETTEVDLLTKELEDFEMKKAAARAVTGVLASHPNSTDVHIINLSLTFHGQELLSDTKLELNSGRRYGLIGLNGIGKSMLLSAIGKREVPIPEHIDIYHLTREMPPSDKTPLHCVMEVDTERAMLEKEAERLAHEDAECEKLMELYERLEELDADKAEMRASRILHGLGFTPAMQRKKLKDFSGGWRMRVALARALFIRPFMLLLDEPTNHLDLDACVWLEEELKTFKRILVLVSHSQDFLNGVCTNIIHMHNKKLKYYTGNYDQYVKTRLELEENQMKRFHWEQDQIAHMKNYIARFGHGSAKLARQAQSKEKTLQKMMASGLTERVVSDKTLSFYFPPCGKIPPPVIMVQNVSFKYTKDGPCIYNNLEFGIDLDTRVALVGPNGAGKSTLLKLLTGELLPTDGMIRKHSHVKIGRYHQHLQEQLDLDLSPLEYMMKCYPEIKEKEEMRKIIGRYGLTGKQQVSPIRNLSDGQKCRVCLAWLAWQNPHMLFLDEPTNHLDIETIDALADAINEFEGGMMLVSHDFRLIQQVAQEIWVCEKQTITKWPGDILAYKEHLKSKLVDEEPQLTKRTHNV

Each molecule was assayed against T1, protein tyrosine phosphatase 1B (PTP1B) (human (endogenous in U251 and KM12SM)) (assay: co-IP; PTP1B immunoprecipitation and Western blot of associated proteins in U251 GBM and KM12SM CRC cells).

binding | Molecule
binds | NF-κB p65 subunit (RELA) (from UniProt Q04206 1-551)
binds | Tenascin-C (TNC) (from UniProt P24821 23-2201)
binds | JAG1 (from UniProt P78504 34-1218)
binds | B1
binds | B2
binds | B3
binds | B4
